From patent US20060193771A1
These are yes or no findings as the source states them, for the method shown. For some assays here: Binding calls can cover weak binding; strength is not graded here.

Legend:
[1] = target: soluble CD30 produced by shedding from L540 cells (culture supernatant) (human); assay: competitive ELISA, soluble CD30 (L540 supernatant) against coated CD30-Fc
[2] = target: CD30 in Western blots (human); assay: Western blot

binding [1] | binding [2] | Binder
binds |  | T24 MAb (antibody, V domains shown) VH: QVQLQQPGAELVRPGASVKLSCKASGYSFTSYWIDWVKQRPGQGLEWIGNIYPSNAYTNYNQKFKDKATLTVDKSSSTAYMQLSSPTSEDSAVYYCTSVLDYFYAMDYWGQGTSVTVSS VL: DIQMTQTTSSLSASLGDRVTISCRASQDISNYLNWYQQKPDGTVKLLIYYTSRLHSGVPSRFSGSGSGTDYSLTISNLEQEDIATYFCQQVNTLPRTFGGGTKLEIKR
binds |  | T13 MAb (antibody, V domains shown) VH: QVQLQQSGAELAKPGASVKMSCKASGYTFTTYWMHWVKQRPGQGLEWIGYINPSTGYTDYNEKFKDKATLTADKSSSTAYMQLSSLTSEDSAVYYCVRRGSYDGNPFAYWGQGTLVSVSA VL: DIVMTQSHKFMSTSVGDRVTITCKASQDVSTAVAWYQQKPGHSPKLLIYWASTRHTGVPDRFTGSGSGTDYTLTISSVQVEDLALYYCQQHYSTPFTFGSGTKLEIKR
binds |  | T420 MAb (antibody, V domains shown) VH: QVQLQQSGAELAKPGASVKMSCKASGYTFTSYWMHWVKQRPGQDLEWIGYINPSTDYTDYNQKFKDKATLTADKSSSTAYMQLSSLTSEDSAVYYCATRHYGSSYGFAYWGQGTLVTVSA VL: DIVMTQSHKFMSTSVGDRVSITCKASQDVSTAVAWYQQKPGQSPKLLIYWASTRHTGVPDRFTGSGSGTDYSLTISSVQAEDLAVYYCQQHYRTPFTFGSGTKLEIKR
binds | no binding | T201 MAb (antibody, V domains shown) VH: QVQLKESGPGLVAPSQSLSITCTVSGFSLIDYGVSWVRQPPGKGLEWLGMIWGDGNTDYNSGLKSRLSISKDNSKSQVFLKVNSLQTDDTARYYCARPSTGTLFAYWGQGTLVTVSA VL: EIVLTQSPTTMAASPGERITFTCSASSGISSIYLHWYQQKPGFSPKLLIYRTSNLASGVPPRFSGSGSGTSYSLTIGTMEAEDVATYYCQQGSSIPLTFGAGTKLELKR
